No constants are given. Whether binding was seen depends on the method and setting. Some results given as binding are weak or reduced against the parent protein; the word gives no strength. Tags and fused reporters may be left off the sequences shown.
Target: T1, BD-AtD14 (Arabidopsis thaliana D14 fused to GAL4-BD) (Arabidopsis thaliana), Q9SQR3
T1 chain: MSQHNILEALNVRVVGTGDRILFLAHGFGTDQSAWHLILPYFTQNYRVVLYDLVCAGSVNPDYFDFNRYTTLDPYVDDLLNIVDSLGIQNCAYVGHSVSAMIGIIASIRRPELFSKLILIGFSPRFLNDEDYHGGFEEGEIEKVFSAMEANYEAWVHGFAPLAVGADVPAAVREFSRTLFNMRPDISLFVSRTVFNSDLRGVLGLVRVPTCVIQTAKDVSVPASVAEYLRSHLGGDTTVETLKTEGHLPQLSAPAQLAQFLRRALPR
Assay: two-hybrid; yeast AH109; D14 proteins as GAL4-BD baits, MAX2/D3 and SMXL7/D53 as GAL4-AD preys; serial 10-fold dilutions spotted on selective medium (SD/-Leu/-Trp/-His/-Ala as printed) with 5 μM rac-GR24 or DMSO; 4 days at 30°C
Details: remark: other sources report otherwise

binding: binds
B1: AD-AtMAX2 (Arabidopsis thaliana MORE AXILLARY GROWTH2 fused to GAL4-AD), Q9SIM9 1-693 (protein)
chain: MASTTLSDLPDVILSTISSLVSDSRARNSLSLVSHKFLALERSTRSHLTIRGNARDLSLVPDCFRSISHLDLSFLSPWGHTLLASLPIDHQNLLALRLKFCFPFVESLNVYTRSPSSLELLLPQWPRIRHIKLLRWHQRASQIPTGGDFVPIFEHCGGFLESLDLSNFYHWTEDLPPVLLRYADVAARLTRLDLLTASFTEGYKSSEIVSITKSCPNLKTFRVACTFDPRYFEFVGDETLSAVATSSPKLTLLHMVDTASLANPRAIPGTEAGDSAVTAGTLIEVFSGLPNLEELVLDVGKDVKHSGVALEALNSKCKKLRVLKLGQFQGVCSATEWRRLDGVALCGGLQSLSIKNSGDLTDMGLVAIGRGCCKLTTFEIQGCENVTVDGLRTMVSLRSKTLTDVRISCCKNLDTAASLKAIEPICDRIKRLHIDCVWSGSEDEEVEGRVETSEADHEEEDDGYERSQKRCKYSFEEEHCSTSDVNGFCSEDRVWEKLEYLSLWINVGEFLTPLPMTGLDDCPNLEEIRIKIEGDCRGKRRPAEPEFGLSCLALYPKLSKMQLDCGDTIGFALTAPPMQMDLSLWERFFLTGIGSLSLSELDYWPPQDRDVNQRSLSLPGAGLLQECLTLRKLFIHGTAHEHFMNFLLRIPNLRDVQLRADYYPAPENDMSTEMRVGSCSRFEDQLNSRNIID

— article PMC8632500, “Identification of Conserved and Divergent Strigolactone Receptors in Sugarcane Reveals a Key Residue Crucial for Plant Branching Control” (Frontiers in Plant Science, 2021)
